Data reported in paper PMC11601901.
Results are given in words; binding and its absence hold for the method and conditions named. In cells and extracts the contact can be indirect. Some entries that bind do so weakly or less than the wild type. For some of these results: Tags and fused reporters may be left off the sequences shown.

Chains of the proteins cited; added tags and fusions are not shown. Lines headed by an entry give the natural chain unless they say otherwise; changes in a name come on top. A line that says so, or that is headed by a name, gives the form on record, which may keep a tag or linker. Residues count along the entry.
UniProt Q86WV6: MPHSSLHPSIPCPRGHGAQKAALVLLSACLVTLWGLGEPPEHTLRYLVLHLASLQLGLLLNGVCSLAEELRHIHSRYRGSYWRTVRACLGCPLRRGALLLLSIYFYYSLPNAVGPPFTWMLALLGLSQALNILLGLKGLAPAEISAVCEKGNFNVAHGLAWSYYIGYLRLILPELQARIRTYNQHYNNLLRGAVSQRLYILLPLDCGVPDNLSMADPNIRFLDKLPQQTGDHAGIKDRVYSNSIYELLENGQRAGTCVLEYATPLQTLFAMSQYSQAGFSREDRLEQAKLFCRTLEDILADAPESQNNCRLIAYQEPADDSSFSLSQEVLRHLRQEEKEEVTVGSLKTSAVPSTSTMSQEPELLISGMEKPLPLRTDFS
MYC-tagged N-terminus of STING (aa 1-139): residues 1-139 of Q86WV6
MYC-tagged C-terminus of STING (aa 140-379): residues 140-379 of Q86WV6

How the values were obtained:
[1] = target: MYC-tagged C-terminus of STING (aa 140-379) (human) (UniProt Q86WV6); test: co-IP; HEK293T cells co-transfected with MYC-tagged STING or its truncations and Flag-tagged HO-1 or its mutants; whole-cell lysates
[2] = target: MYC-tagged N-terminus of STING (aa 1-139) (human) (UniProt Q86WV6); test: as above
[3] = target: MYC-tagged full-length STING (aa 1-379) (human) (UniProt Q86WV6); test: as above
[4] = target: HA-tagged full-length cGAS (aa 1-522) (UniProt Q8N884); test: co-IP; HEK293T cells co-transfected with Flag-tagged HO-1 mutants and HA-tagged cGAS or its truncations, under RT; whole-cell lysates
[5] = target: endogenous CRM1 (human (endogenous in HK1)), O14980; test: co-IP; endogenous proteins in HK1 cells (control, HMOX1-KO, or HMOX1-KO re-expressing HO-1ΔTMS); treatments: RT, cGAMP; whole-cell lysates immunoprecipitated overnight at 4 °C with the indicated antibodies, Protein A/G magnetic beads; settings: remark: other sources report otherwise
[6] = target: endogenous STING (human (endogenous in HK1)) (UniProt Q86WV6); test: as above
[7] = target: endogenous STING (human (endogenous in HK1)), Q86WV6; test: as above; settings: remark: other sources report otherwise

B1: Flag-tagged WT HO-1 (protein, UniProt P09601 1-288)
chain: MERPQPDSMPQDLSEALKEATKEVHTQAENAEFMRNFQKGQVTRDGFKLVMASLYHIYVALEEEIERNKESPVFAPVYFPEELHRKAALEQDLAFWYGPRWQEVIPYTPAMQRYVKRLHEVGRTEPELLVAHAYTRYLGDLSGGQVLKKIAQKALDLPSSGEGLAFFTFPNIASATKFKQLYRSRMNSLEMTPAVRQRVIEEAKTAFLLNIQLFEELQELLTHDTKDQSPSRAPGLRQRASNKVQDSAPVETPRGKPPLNTRSQAPLLRWVLTLSFLVATVAVGLYAM
B1 was tested, and the binding [1] was “binds”, the binding [2] was “binds” and the binding [3] was “binds”.

B2: Flag-tagged HO-1 with Tyr97 mutated into alanine (protein, UniProt P09601 1-288)
chain: MERPQPDSMPQDLSEALKEATKEVHTQAENAEFMRNFQKGQVTRDGFKLVMASLYHIYVALEEEIERNKESPVFAPVYFPEELHRKAALEQDLAFWAGPRWQEVIPYTPAMQRYVKRLHEVGRTEPELLVAHAYTRYLGDLSGGQVLKKIAQKALDLPSSGEGLAFFTFPNIASATKFKQLYRSRMNSLEMTPAVRQRVIEEAKTAFLLNIQLFEELQELLTHDTKDQSPSRAPGLRQRASNKVQDSAPVETPRGKPPLNTRSQAPLLRWVLTLSFLVATVAVGLYAM
With B2 the binding [3] was “binds”.

B3: Flag-tagged HO-1 with Arg100 mutated into alanine (protein, UniProt P09601 1-288)
chain: MERPQPDSMPQDLSEALKEATKEVHTQAENAEFMRNFQKGQVTRDGFKLVMASLYHIYVALEEEIERNKESPVFAPVYFPEELHRKAALEQDLAFWYGPAWQEVIPYTPAMQRYVKRLHEVGRTEPELLVAHAYTRYLGDLSGGQVLKKIAQKALDLPSSGEGLAFFTFPNIASATKFKQLYRSRMNSLEMTPAVRQRVIEEAKTAFLLNIQLFEELQELLTHDTKDQSPSRAPGLRQRASNKVQDSAPVETPRGKPPLNTRSQAPLLRWVLTLSFLVATVAVGLYAM
In the case of B3, the binding [3] is reported as “binds”.

B4: Flag-tagged HO-1 with Arg113 mutated into alanine (protein, UniProt P09601 1-288)
chain: MERPQPDSMPQDLSEALKEATKEVHTQAENAEFMRNFQKGQVTRDGFKLVMASLYHIYVALEEEIERNKESPVFAPVYFPEELHRKAALEQDLAFWYGPRWQEVIPYTPAMQAYVKRLHEVGRTEPELLVAHAYTRYLGDLSGGQVLKKIAQKALDLPSSGEGLAFFTFPNIASATKFKQLYRSRMNSLEMTPAVRQRVIEEAKTAFLLNIQLFEELQELLTHDTKDQSPSRAPGLRQRASNKVQDSAPVETPRGKPPLNTRSQAPLLRWVLTLSFLVATVAVGLYAM
B4 was tested, and the binding [3] was “binds”.

B5: Flag-tagged cleaved HO-1 (HO-1ΔTMS) (domain or fragment, UniProt P09601 1-265)
chain: MERPQPDSMPQDLSEALKEATKEVHTQAENAEFMRNFQKGQVTRDGFKLVMASLYHIYVALEEEIERNKESPVFAPVYFPEELHRKAALEQDLAFWYGPRWQEVIPYTPAMQRYVKRLHEVGRTEPELLVAHAYTRYLGDLSGGQVLKKIAQKALDLPSSGEGLAFFTFPNIASATKFKQLYRSRMNSLEMTPAVRQRVIEEAKTAFLLNIQLFEELQELLTHDTKDQSPSRAPGLRQRASNKVQDSAPVETPRGKPPLNTRSQA
With B5 the binding [4] was “binds”.

B6: Flag-tagged HO-1 with Gln212 mutated into alanine (protein, UniProt P09601 1-288)
chain: MERPQPDSMPQDLSEALKEATKEVHTQAENAEFMRNFQKGQVTRDGFKLVMASLYHIYVALEEEIERNKESPVFAPVYFPEELHRKAALEQDLAFWYGPRWQEVIPYTPAMQRYVKRLHEVGRTEPELLVAHAYTRYLGDLSGGQVLKKIAQKALDLPSSGEGLAFFTFPNIASATKFKQLYRSRMNSLEMTPAVRQRVIEEAKTAFLLNIALFEELQELLTHDTKDQSPSRAPGLRQRASNKVQDSAPVETPRGKPPLNTRSQAPLLRWVLTLSFLVATVAVGLYAM
With B6 the binding [3] was “binds”.

B7: Flag-tagged HO-1 with Thr222 mutated into alanine (protein, UniProt P09601 1-288)
chain: MERPQPDSMPQDLSEALKEATKEVHTQAENAEFMRNFQKGQVTRDGFKLVMASLYHIYVALEEEIERNKESPVFAPVYFPEELHRKAALEQDLAFWYGPRWQEVIPYTPAMQRYVKRLHEVGRTEPELLVAHAYTRYLGDLSGGQVLKKIAQKALDLPSSGEGLAFFTFPNIASATKFKQLYRSRMNSLEMTPAVRQRVIEEAKTAFLLNIQLFEELQELLAHDTKDQSPSRAPGLRQRASNKVQDSAPVETPRGKPPLNTRSQAPLLRWVLTLSFLVATVAVGLYAM
In the case of B7, the binding [3] is reported as “binds”.

B8: Flag-tagged HO-1 with simultaneous mutation of all 5 residues (Tyr97, Arg100, Arg113, Gln212, Thr222) into alanine (protein, UniProt P09601 1-288)
chain: MERPQPDSMPQDLSEALKEATKEVHTQAENAEFMRNFQKGQVTRDGFKLVMASLYHIYVALEEEIERNKESPVFAPVYFPEELHRKAALEQDLAFWAGPAWQEVIPYTPAMQAYVKRLHEVGRTEPELLVAHAYTRYLGDLSGGQVLKKIAQKALDLPSSGEGLAFFTFPNIASATKFKQLYRSRMNSLEMTPAVRQRVIEEAKTAFLLNIALFEELQELLAHDTKDQSPSRAPGLRQRASNKVQDSAPVETPRGKPPLNTRSQAPLLRWVLTLSFLVATVAVGLYAM
With B8 the binding [3] was “binds weakly”.

B9: endogenous cGAS, Q8N884 1-522 (protein)
chain: MQPWHGKAMQRASEAGATAPKASARNARGAPMDPTESPAAPEAALPKAGKFGPARKSGSRQKKSAPDTQERPPVRATGARAKKAPQRAQDTQPSDATSAPGAEGLEPPAAREPALSRAGSCRQRGARCSTKPRPPPGPWDVPSPGLPVSAPILVRRDAAPGASKLRAVLEKLKLSRDDISTAAGMVKGVVDHLLLRLKCDSAFRGVGLLNTGSYYEHVKISAPNEFDVMFKLEVPRIQLEEYSNTRAYYFVKFKRNPKENPLSQFLEGEILSASKMLSKFRKIIKEEINDIKDTDVIMKRKRGGSPAVTLLISEKISVDITLALESKSSWPASTQEGLRIQNWLSAKVRKQLRLKPFYLVPKHAKEGNGFQEETWRLSFSHIEKEILNNHGKSKTCCENKEEKCCRKDCLKLMKYLLEQLKERFKDKKHLDKFSSYHVKTAFFHVCTQNPQDSQWDRKDLGLCFDNCVTYFLQCLRTEKLENYFIPEFNLFSSNLIDKRSKEFLTKQIEYERNNEFPVFDEF
In the case of B9, the binding [5] is reported as “binds”.

B10: endogenous HO-1 (full-length, ER-anchored) (protein, UniProt P09601 1-288)
chain: MERPQPDSMPQDLSEALKEATKEVHTQAENAEFMRNFQKGQVTRDGFKLVMASLYHIYVALEEEIERNKESPVFAPVYFPEELHRKAALEQDLAFWYGPRWQEVIPYTPAMQRYVKRLHEVGRTEPELLVAHAYTRYLGDLSGGQVLKKIAQKALDLPSSGEGLAFFTFPNIASATKFKQLYRSRMNSLEMTPAVRQRVIEEAKTAFLLNIQLFEELQELLTHDTKDQSPSRAPGLRQRASNKVQDSAPVETPRGKPPLNTRSQAPLLRWVLTLSFLVATVAVGLYAM
For B10, the binding [6] was “binds”.

B11: endogenous TBK1, Q9UHD2 1-729 (protein)
chain: MQSTSNHLWLLSDILGQGATANVFRGRHKKTGDLFAIKVFNNISFLRPVDVQMREFEVLKKLNHKNIVKLFAIEEETTTRHKVLIMEFCPCGSLYTVLEEPSNAYGLPESEFLIVLRDVVGGMNHLRENGIVHRDIKPGNIMRVIGEDGQSVYKLTDFGAARELEDDEQFVSLYGTEEYLHPDMYERAVLRKDHQKKYGATVDLWSIGVTFYHAATGSLPFRPFEGPRRNKEVMYKIITGKPSGAISGVQKAENGPIDWSGDMPVSCSLSRGLQVLLTPVLANILEADQEKCWGFDQFFAETSDILHRMVIHVFSLQQMTAHKIYIHSYNTATIFHELVYKQTKIISSNQELIYEGRRLVLEPGRLAQHFPKTTEENPIFVVSREPLNTIGLIYEKISLPKVHPRYDLDGDASMAKAITGVVCYACRIASTLLLYQELMRKGIRWLIELIKDDYNETVHKKTEVVITLDFCIRNIEKTVKVYEKLMKINLEAAELGEISDIHTKLLRLSSSQGTIETSLQDIDSRLSPGGSLADAWAHQEGTHPKDRNVEKLQVLLNCMTEIYYQFKKDKAERRLAYNEEQIHKFDKQKLYYHATKAMTHFTDECVKKYEAFLNKSEEWIRKMLHLRKQLLSLTNQCFDIEEEVSKYQEYTNELQETLPQKMFTASSGIKHTMTPIYPSSNTLVEMTLGMKKLKEEMEGVVKELAENNHILERFGSLTMDGGLRNVDCL
B11 was tested, and the binding [7] was “binds”.
